In publication PMC10339524:
No constants are given. Whether binding was seen depends on the method and setting. Binding seen in cells or lysates may run through a third protein. Some entries that bind do so weakly or less than the wild type. For some assays here: Sequences can lack the tags named with a protein.

T1: Coiled-coil-helix-coiled-coil-helix domain-containing protein 4 (rat (endogenous in PASMCs)) (UniProt Q5BJN5)
T1 sequence: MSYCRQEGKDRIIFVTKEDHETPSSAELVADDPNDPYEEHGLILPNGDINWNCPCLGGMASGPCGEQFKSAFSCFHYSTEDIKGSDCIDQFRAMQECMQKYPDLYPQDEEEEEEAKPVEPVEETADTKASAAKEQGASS

T2: HA-tagged CHCHD4 (UniProt Q5BJN5)
T2 sequence: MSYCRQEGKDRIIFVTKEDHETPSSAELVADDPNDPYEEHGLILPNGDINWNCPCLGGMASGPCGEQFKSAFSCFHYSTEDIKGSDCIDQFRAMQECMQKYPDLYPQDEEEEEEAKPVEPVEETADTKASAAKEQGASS


How the values were obtained:
[1] = target: T1, Coiled-coil-helix-coiled-coil-helix domain-containing protein 4 (rat (endogenous in PASMCs)); test: co-IP; PASMCs lysates immunoprecipitated with anti-CHCHD4 or anti-SAM50 antibodies, probed with anti-SAM50 or anti-CHCHD4 antibodies; endogenous proteins
HA-tagged CHCHD4 = target: T2, HA-tagged CHCHD4; test: co-IP; Flag-agarose or HA-agarose beads incubated with lysates of HEK 293 cells transfected with Flag-tagged SAM50 alone or together with HA-tagged CHCHD4; probed with anti-HA or anti-Flag antibody

Row | Binder | binding [1] | binding (HA-tagged CHCHD4)
1 | SAM50 (protein, UniProt Q6AXV4 1-469) MGTVHARSLEPLPSSGTDFGALGEEAEFVEVEPEAKQEILENKDVVVQHVHFDGLERTKDDIIICEIGEVFKAKNLIEVMRRSHEAREKLLRLGIFRQVDVLIDTCHGEDALPNGLDVTFEVTELRRLTGSYNTMVGNNEGSMVLGLKLPNLLGRAEKVTFQFSYGTKETSYGLSFFKPQPGNFEKNFSVNLYKVTGQFPWSSLRETDRGVSAEYSFPLCKTSHTVKWEGVWRELGCLARTASFAVRKESGHSLKSSLSHAMVIDSRNSSILPRRGALLKVNQELAGYTGGDVSFIKEDFELQLNKPLVLDSVFSTSLWGGMLVPIGDKLSSIADRFYLGGPTSVRGFSMHSIGPQSEGDYLGGEAYWAGGLHLYTPLPFRPGQGGFGELFRTHFFLNAGNLCNLNYGEGPRAHIRKLAECIRWSYGAGIVLRLGNIARLELNYCIPMGVQRGDRICDGVQFGAGIRFL | binds | –
2 | Flag-tagged SAM50 (protein, UniProt Q6AXV4 1-469) MGTVHARSLEPLPSSGTDFGALGEEAEFVEVEPEAKQEILENKDVVVQHVHFDGLERTKDDIIICEIGEVFKAKNLIEVMRRSHEAREKLLRLGIFRQVDVLIDTCHGEDALPNGLDVTFEVTELRRLTGSYNTMVGNNEGSMVLGLKLPNLLGRAEKVTFQFSYGTKETSYGLSFFKPQPGNFEKNFSVNLYKVTGQFPWSSLRETDRGVSAEYSFPLCKTSHTVKWEGVWRELGCLARTASFAVRKESGHSLKSSLSHAMVIDSRNSSILPRRGALLKVNQELAGYTGGDVSFIKEDFELQLNKPLVLDSVFSTSLWGGMLVPIGDKLSSIADRFYLGGPTSVRGFSMHSIGPQSEGDYLGGEAYWAGGLHLYTPLPFRPGQGGFGELFRTHFFLNAGNLCNLNYGEGPRAHIRKLAECIRWSYGAGIVLRLGNIARLELNYCIPMGVQRGDRICDGVQFGAGIRFL | – | binds
